Changes are numbered by the printed parent chain. Names and notes keep the numbering of the source. Results are given in words; binding and its absence hold for the method and conditions named. Binding seen in cells or lysates may run through a third protein. Some entries that bind do so weakly or less than the wild type. Sequences can lack the tags named with a protein.

By UniProt entry, the sequences of proteins in these tests, tags left out.
UniProt P36012: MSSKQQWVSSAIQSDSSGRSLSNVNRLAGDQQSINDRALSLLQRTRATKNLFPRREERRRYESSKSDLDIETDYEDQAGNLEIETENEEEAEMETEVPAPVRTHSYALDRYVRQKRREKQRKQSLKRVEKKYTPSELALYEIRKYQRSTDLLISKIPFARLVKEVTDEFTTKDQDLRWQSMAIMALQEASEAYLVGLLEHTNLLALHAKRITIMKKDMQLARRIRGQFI

One experiment concerns the target T1, Psh1-HA (budding yeast) (UniProt Q12161).
T1 sequence: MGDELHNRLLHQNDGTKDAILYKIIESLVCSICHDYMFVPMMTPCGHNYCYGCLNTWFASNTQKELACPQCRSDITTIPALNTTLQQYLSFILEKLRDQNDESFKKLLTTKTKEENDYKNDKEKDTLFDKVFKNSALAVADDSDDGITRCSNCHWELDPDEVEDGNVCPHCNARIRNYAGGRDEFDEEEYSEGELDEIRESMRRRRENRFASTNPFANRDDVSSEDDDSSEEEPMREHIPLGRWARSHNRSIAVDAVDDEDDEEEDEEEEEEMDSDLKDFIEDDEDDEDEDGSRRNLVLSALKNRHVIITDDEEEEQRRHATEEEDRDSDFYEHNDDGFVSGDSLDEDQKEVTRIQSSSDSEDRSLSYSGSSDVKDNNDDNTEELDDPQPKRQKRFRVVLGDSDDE
Kind of experiment: co-IP; lysates of Cse4-Myc/Psh1-HA strains, WT or cka2Δ; Psh1-HA precipitated, Cse4-Myc detected; control strain lacking Psh1-HA.

Experiment [1] addresses Cse4 (overexpressed from the GAL promoter on a 2-μm plasmid) (budding yeast) (UniProt P36012). Kind of experiment: co-IP; cell lysates of strains overexpressing Cse4 from the GAL promoter; IP with anti-Cse4 antibody, Psh1-HA detected; control IP without antibody.
Experiment [2] addresses T2, Ckb1-FLAG (budding yeast) (UniProt P43639).
T2 sequence: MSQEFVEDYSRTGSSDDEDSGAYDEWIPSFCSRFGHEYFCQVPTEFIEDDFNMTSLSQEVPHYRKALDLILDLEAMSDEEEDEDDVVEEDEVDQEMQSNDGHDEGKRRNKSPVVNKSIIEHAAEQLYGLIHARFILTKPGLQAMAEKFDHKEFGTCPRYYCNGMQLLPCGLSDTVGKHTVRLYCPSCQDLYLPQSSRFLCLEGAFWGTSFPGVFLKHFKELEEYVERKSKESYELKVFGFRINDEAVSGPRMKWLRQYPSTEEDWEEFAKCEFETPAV
In words: co-IP; whole cell extract; anti-FLAG IP of Ckb1-FLAG or Ckb2-FLAG, Psh1-HA detected by Western blot; 50 mM Tris pH 7.5, 150 mM NaCl, 0.1% Nonidet P-40, 4 °C.

In experiment [3] the target is T3, Ckb2-FLAG (budding yeast) (UniProt P38930).
T3 sequence: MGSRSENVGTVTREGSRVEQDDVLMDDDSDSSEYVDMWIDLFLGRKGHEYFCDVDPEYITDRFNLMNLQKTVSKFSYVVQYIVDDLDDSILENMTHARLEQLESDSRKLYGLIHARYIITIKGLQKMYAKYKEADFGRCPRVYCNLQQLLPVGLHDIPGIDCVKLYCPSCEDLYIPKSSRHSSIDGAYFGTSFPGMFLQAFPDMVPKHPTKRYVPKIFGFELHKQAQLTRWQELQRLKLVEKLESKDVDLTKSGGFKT
The experiment is described as above.

Experiment [4] addresses T4, Ubc3-TAP (budding yeast), P14682.
T4 chain: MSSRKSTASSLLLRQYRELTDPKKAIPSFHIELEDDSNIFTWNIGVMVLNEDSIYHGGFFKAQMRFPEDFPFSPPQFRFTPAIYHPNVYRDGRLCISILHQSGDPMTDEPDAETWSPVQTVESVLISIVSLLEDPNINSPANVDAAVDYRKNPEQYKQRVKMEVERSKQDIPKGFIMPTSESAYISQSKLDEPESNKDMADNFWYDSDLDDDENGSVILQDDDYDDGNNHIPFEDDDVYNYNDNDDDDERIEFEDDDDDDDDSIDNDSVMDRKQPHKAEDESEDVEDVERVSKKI
In words: co-IP; lysates of Ubc3-TAP/Psh1-HA strains, WT or cka2Δ; Ubc3-TAP precipitated, Psh1-HA detected; control strain lacking Ubc3-TAP. Particulars: remark: other sources report otherwise.

As for Cse4-Myc (from UniProt P36012 1-229), the binding result in the experiment with Psh1-HA (budding yeast) was “binds”.

B1: Psh1-HA (enzyme, UniProt Q12161 1-406)
chain: T1 sequence
As for B1, the binding result in experiment [1], in experiment [2] and in experiment [3] was “binds” in each case.

B2: Psh1-HA, Q12161 1-406 (enzyme)
chain: T1 sequence
Take B2: the binding result in experiment [4] is given as “binds”.

B3: Psh1-S8A/T2A-HA (enzyme, UniProt Q12161 1-406)
chain: T1 sequence with S143A, S191A, S229A, S230A, S275A, T310A, S341A, S344A, T382A, S403A
As for B3, in experiment [1], the binding result is listed as “binds”.
